PubChem BioAssay AID504786, Drosophila RNAi Screening Center | 2011

Assay: 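Knock-downs reducing HIF reporter induction by the iron chelator DFO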 (primary screen)
System: Drosophila S2 cells with a stable HIF luciferase reporter
Reagents: long dsRNA against Drosophila genes, about 0.2 µg dsRNA per well of a 384-well plate
Timing: three days of knock-down, then 20 h of DFO before reading
Treatment: desferrioxamine (DFO) at 100 µM, an iron chelator that mimics hypoxia, for 20 h
Detection: 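HIF reporter luminescence in cells given 100 µM DFO for 20 h, using the mouse ldh-a hypoxia-response element, scored as per-plate z-scores; higher means greater loss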
Scale: z-score: higher = stronger loss of HIF reporter signal
The screen tested about 21,000 reagents; below is a random part of those that have a named target and a result. 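Primary screen; positive scores mean lost reporter signal, so the sign may be inverted from the usual convention.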

predicted target,amplicon,"z-score, replicate 1","z-score, replicate 2"
ac (GeneID 30981),DRSC18734,0.1,0.5
CG8654 (GeneID 37275),DRSC07231,-0.4,-1
cag (GeneID 36157),DRSC07587,-0.1,-0.3
Naa20A (GeneID 32962),DRSC19579,-0.2,0.3
RpS16 (GeneID 37580),DRSC04442,4.1,4.5
Sptr (GeneID 31781),DRSC18719,-0.1,0.1
CG6865 (GeneID 40050),DRSC10732,-0.2,0.1
CG34345 (GeneID 5740402),DRSC02126,-0.3,-0.2
CG17826 (GeneID 39354),DRSC10289,-0.3,-0.6
Ns3 (GeneID 31097),DRSC18607,-0.2,-0.5
CG15539 (GeneID 43627),DRSC15075,-0.3,-0.3
garz (GeneID 36337),DRSC07193,-0.7,-0.9
CG16926 (GeneID 50205),DRSC06637,-0.2,-0.5
Acadvl (GeneID 37217),DRSC07022,2.5,2.1

Laid out differently: entries from further up.
predicted target	amplicon	z-score, replicate 1	z-score, replicate 2
CG8654 (GeneID 37275)	DRSC07231	-0.4	-1
cag (GeneID 36157)	DRSC07587	-0.1	-0.3
Naa20A (GeneID 32962)	DRSC19579	-0.2	0.3
RpS16 (GeneID 37580)	DRSC04442	4.1	4.5

More results follow:
predicted target,amplicon,"z-score, replicate 1","z-score, replicate 2"
Pgls (GeneID 32013),DRSC19769,-0.2,-0.2
Sod3 (GeneID 36232),DRSC07324,-0.2,-0.1
CG12934 (GeneID 36124),DRSC06247,-0.2,-0.4
Hmg-2 (GeneID 37407),DRSC04554,-0.2,0.1
Usf (GeneID 31384),DRSC18129,-0.3,-0.6
Usp10 (GeneID 38103),DRSC08282,-0.2,0.2
Usp10 (GeneID 38103),DRSC08373,-0.2,-0.4
CG14443 (GeneID 31595),DRSC17936,-0.3,-0.3
CG12426 (GeneID 43342),DRSC14516,-0.4,-0.1
Tpst (GeneID 32312),DRSC18989,-0.3,-0.1
Tpst (GeneID 32312),DRSC19696,-0.2,-0.3
Tpst (GeneID 32312),DRSC19723,-0.5,-1.1
Tpst (GeneID 32312),DRSC19724,0.4,0.5
CG15544 (GeneID 43655),DRSC15082,-0.4,-0.7
DIP-delta (GeneID 5740816),DRSC10214,0.3,-0.7
DIP-delta (GeneID 5740816),DRSC10450,-0.4,0
gce (GeneID 32457),DRSC19613,-0.3,-0.3
gce (GeneID 32457),DRSC19974,-0.1,0.1
CG13898 (GeneID 38092),DRSC08368,-0.4,-0.8
Pgant9 (GeneID 246627),DRSC05621,-0.8,-0.3
Pgant9 (GeneID 246627),DRSC06584,-0.3,-0.3
Pgant9 (GeneID 246627),DRSC07185,-0.3,-0.1
Pgant9 (GeneID 246627),DRSC07186,-0.4,-0.3
Pgant9 (GeneID 246627),DRSC07187,0,-0.7
Pgant9 (GeneID 246627),DRSC07189,-0.1,-0.2
